This is an account of results in article PMC2483945, “Structure of the Head of the Bartonella Adhesin BadA” (PLoS Pathogens, 2008).

These are yes or no findings as the source states them, for the method shown. Some binding calls cover weakened binding; strength is not graded here.

The assay has as its target BadA head fragment (Trp-ring domain, GIN domain, neck and first stalk segment; residues 375 to 536) (Bartonella henselae) (UniProt Q5MWV9). Nature of the assay: crystal structure; hanging drop at 291 K, space group P1, one trimer in the asymmetric unit, 1.13 Å; both purified.

B1: BadA head fragment (Trp-ring domain, GIN domain, neck and first stalk segment; residues 375 to 536) (domain or fragment)
chain: KALRGMISEKGGWNLTVNNDNNTVVSSGGALDLSSGSKNLKIVKDGKKNNVTFDVARDLTLKSIKLDGVTLNETGLFIANGPQITASGINAGSQKITGVAEGTDANDAVNFGQLKKIETEVKEQVAASGFVKQDSDTKYLTIGKDTDGDTINIANNKSDKRT
notes: Residues 385-498 are resolved in the crystal; also called BadA construct; BadA fragment; source: recombinantly expressed, purified as described [11]
Take B1: the binding entry was “binds”.
